# Where a protein sequence is shown, tags need not be part of it.
# Target: T1, ZapT-His (ZapT-3xFLAG-6xHis) (Caulobacter crescentus NA1000) (UniProt A0A0H3C832)
# T1 sequence (looked up): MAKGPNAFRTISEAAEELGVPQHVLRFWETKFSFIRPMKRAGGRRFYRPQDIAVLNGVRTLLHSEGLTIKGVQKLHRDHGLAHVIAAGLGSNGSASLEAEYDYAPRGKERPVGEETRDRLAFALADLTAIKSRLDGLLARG
# Assay: EMSA
# Settings: 5 mM Mg acetate, free DNA decreases, no discrete complex band, 50% point comparable for E1-E3, 20 mM HEPES-KOH pH 7.6, 100 mM NaCl, 10% glycerol, 0.01% Triton X-100, 0.1 mg/ml BSA, 10 nM DNA, 10 min on ice, 6% PAGE, GelStar stain, recombinant protein, residues 1-141, protein details: C-terminal 3xFLAG and 6xHis (pET21a01434_3F6H), probe letters rebuilt from the primers and the genome
sequence,measurement,value
CGAGGTGATCATCGTGTCGAATTCCACCCGCCGGGCGCCCGCCTTCAGCGGCCTGACCGTCACCTTGGTGGTTTCCCGGGCGACATAGGCCAGCTCCGGGCCGGAATTGACGATCCAGTCGACCTCGAGCGTCAGGGTCCCGCCACCTTCGGCGTCGCCCAGAAAGCGTTTCTCGCGAACGAAGTACGACAGGTTCTTCATGTACCAGCCGTCGGCGACGGACTTTCCGTTCGCCTGCACCTTCATCCAGGCCCACCAGACGCCCCGGTGATGCGGATGATCGCCCGGCTTGTCCTCGGTCAGCGCGGTTCCGTCCGGCGCATAGAGCGGGCTGACATAGTTG (double strand) [E2],binding result,binds
